Data as given in patent US20090104711A1, “FLUORESCENT MARKER COMPRISING DOUBLE BOND ESTER GROUP AND METHOD FOR MARKING AND DETECTING THE SAME” (priority 2005, published 2009).

Assay: Qualitative analysis using markers: fluorescence of marked kerosene oil after adding lithium methoxide
Settings: marker 10 ppm in kerosene oil; for Color: fluorescence colour, 7.5% lithium methoxide developer; for λmax (nm): fluorescence, 5 ml 7.5% lithium methoxide added to 50 ml, irradiation wavelength 350-570 nm per compound (Table 1 r6)

For `CCCCCCCC/C=C\CCCCCCCC(=O)Oc1cc(=O)oc2ccccc12` [Example 1, 4-coumarin oleate], the Color was “blue” and the “λmax (nm)” value was 471 nm.

For `CCCCCCCCC=CCCCCCCCC(=O)Oc1ccc2ccc(=O)oc2c1` [Example 2, 7-coumarin oleate], the Color was “blue” and the “λmax (nm)” value was 460 nm.

In the case of `CCCCCCCC/C=C\CCCCCCCC(=O)Oc1cc(=O)oc2ccc(Cl)cc12` [Example 3, 6-chloro-4-coumarin oleate], the Color is reported as “blue” and the “λmax (nm)” value is reported as 460 nm.

In the case of `CCCCCCCC/C=C\CCCCCCCC(=O)Oc1ccc2c(C)cc(=O)oc2c1` [Example 4], the Color is reported as “blue” and the “λmax (nm)” value is reported as 460 nm.

With `C=C(C)C(=O)Oc1ccc2c(c1)Oc1cc(OC(=O)C(=C)C)ccc1C21OC(=O)c2ccccc21` [Example 5, fluorescein dimethacrylate] the Color was “green” and the “λmax (nm)” value was 525 nm.

With `CCCCCCCC/C=C\CCCCCCCC(=O)Oc1cc2c(cc1Cl)C1(OC(=O)c3ccccc31)c1cc(Cl)c(OC(=O)CCCCCCC/C=C\CCCCCCCC)cc1O2` [Example 7, 2,7-dichlorofluorescein dioleate] the Color was “Reddish” and the “λmax (nm)” value was 530 nm.

With resorufin dicrotonylate [Example 8] the Color was “red” and the “λmax (nm)” value was 572 nm.

With resorufin dioleate [Example 9] the Color was “red” and the “λmax (nm)” value was 572 nm.
